Measurements from publication PMC10443802 (JCI Insight, 2023).

Test system: OATP1B2
Experiment: Untargeted metabolomics of plasma and DRG, WT vs OATP1B2-deficient mice
Assay type: in vivo, mouse
Conditions: untargeted metabolomics, WT vs OATP1B2-deficient mice
[1] = supplement sheet "Figure 5B" (volcano plot)
[2] = Figure 5B source data (volcano plot), log2 fold change of metabolite level

Q: For `Cc1ccc(OS(=O)(=O)O)c(N)c1` [2-amino-p-cresol sulfate], which Log2FoldChange [1] is on record?
A: 2.098

Q: What does the source list for `NC(CCCC(=O)O)C(=O)O` (stereo not shown) [2-aminoadipate]?
A: Log2FoldChange (supplement sheet "Figure 5B"): 0.09761; Log2FoldChange (sheet "Figure 5C"): -0.152

Q: `CCC(N)C(=O)O` (stereo not shown) [2-aminobutyrate] was tested. Which Log2FoldChange [2] did it give?
A: -0.2176

Q: For `CCCCCC(N)C(=O)O` (stereo not shown) [2-aminoheptanoate], which Log2FoldChange (supplement sheet "Figure 5B") is on record?
A: -0.1047

Q: Which results are given for `CCCCCCC(N)C(=O)O` (stereo not shown) [2-aminooctanoate]?
A: Log2FoldChange (supplement sheet "Figure 5B"): -0.1047; Log2FoldChange (sheet "Figure 5C"): -0.415

Q: How did the Log2FoldChange (supplement sheet "Figure 5B") turn out when `Nc1ccccc1OS(=O)(=O)O` [2-aminophenol sulfate] was run?
A: 0.1763

Q: For `CCCCC/C=C\C/C=C\C/C=C\C/C=C\CCCC(=O)OC(CO)CO` [2-arachidonoylglycerol (20:4)], which Log2FoldChange (supplement sheet "Figure 5B") is on record?
A: -0.08927

Q: And the Log2FoldChange (sheet "Figure 5C")?
A: 0.263

Q: For `C/C=C/C(=O)NCC(=O)O` [2-butenoylglycine], which Log2FoldChange (supplement sheet "Figure 5B") is on record?
A: 0.111

Q: `CCC(C)C(O)C(=O)O` (stereo not shown) [2-hydroxy-3-methylvalerate] was tested. Which Log2FoldChange [1] did it give?
A: 1.655

Q: How did the Log2FoldChange [2] turn out when `O=C(O)CCCC(O)C(=O)O` (stereo not shown) [2-hydroxyadipate] was run?
A: -0.2345

Q: What about the Log2FoldChange (sheet "Figure 5C") of the same compound?
A: 0.05658

Q: For `CCCCCCCCCCCCCCCCCCC(O)C(=O)O` (stereo not shown) [2-hydroxyarachidate*], which Log2FoldChange [2] is on record?
A: -0.5995

Q: And the Log2FoldChange (sheet "Figure 5C")?
A: 0

Q: `CCCCCCCCC(O)C(=O)O` (stereo not shown) [2-hydroxydecanoate] was tested. Which Log2FoldChange (supplement sheet "Figure 5B") did it give?
A: 0

Q: Which Log2FoldChange (supplement sheet "Figure 5B") does the source give for `O=C(O)CCC(O)C(=O)O` (stereo not shown) [2-hydroxyglutarate] here?
A: 0.08406

Q: With `O=C(O)CNC(=O)c1ccccc1O` [2-hydroxyhippurate (salicylurate)] as the compound, how does the Log2FoldChange (supplement sheet "Figure 5B") read?
A: -0.08927

Q: With `CCCCCCC(O)C(=O)O` (stereo not shown) [2-hydroxyoctanoate] as the compound, how does the Log2FoldChange (supplement sheet "Figure 5B") read?
A: -0.1203

Q: `CCCCCCCCCCCCCCC(O)C(=O)O` (stereo not shown) [2-hydroxypalmitate] was tested. Which Log2FoldChange (sheet "Figure 5C") did it give?
A: 0.4222

Q: Which Log2FoldChange (supplement sheet "Figure 5B") does the source give for `O=C(O)Cc1ccccc1O` [2-hydroxyphenylacetate] here?
A: 0.09761

Q: With `CC(C)C(O)(CC(=O)O)C(=O)O` (stereo not shown) [2-isopropylmalate] as the compound, how does the Log2FoldChange [1] read?
A: 0.433

Q: `O=C(O)C(=O)CC(O)C(O)CO` (stereo not shown) [2-keto-3-deoxy-gluconate] was tested. Which Log2FoldChange [1] did it give?
A: 0.3103

Q: `O=C(O)C(=O)[C@@H](O)[C@H](O)[C@@H](O)CO` [2-ketogulonate] was tested. Which Log2FoldChange (supplement sheet "Figure 5B") did it give?
A: 0.09761

Q: With `CCCCC/C=C\C/C=C\CCCCCCCC(=O)OC(CO)CO` [2-linoleoylglycerol (18:2)] as the compound, how does the Log2FoldChange [2] read?
A: -0.1844

Q: And the Log2FoldChange (sheet "Figure 5C")?
A: 0.5656

Q: `CCC(C)C(=O)OC(CC(=O)[O-])C[N+](C)(C)C` (stereo not shown) [2-methylbutyrylcarnitine (C5)] was tested. Which Log2FoldChange (supplement sheet "Figure 5B") did it give?
A: 0.111

Q: With `CCC(C)C(=O)NCC(=O)O` (stereo not shown) [2-methylbutyrylglycine] as the compound, how does the Log2FoldChange [1] read?
A: 0.4751

Q: How did the Log2FoldChange [2] turn out when `CCCCCCCCCCCCCC(=O)OC(CO)CO` [2-myristoylglycerol (14:0)] was run?
A: -0.2009

Q: And the Log2FoldChange (sheet "Figure 5C")?
A: 0.7137

Q: Which results are given for `CCCCCCCC/C=C\CCCCCCCC(=O)OC(CO)CO` [2-oleoylglycerol (18:1)]?
A: Log2FoldChange (supplement sheet "Figure 5B"): -0.0145; Log2FoldChange (sheet "Figure 5C"): 0.2265

Q: Which Log2FoldChange [2] does the source give for `O=C(O)CC1C(=O)Nc2ccccc21` (stereo not shown) [2-oxindole-3-acetate] here?
A: -0.8625

Q: How did the Log2FoldChange (supplement sheet "Figure 5B") turn out when `O=C(O)CCCC(=O)C(=O)O` [2-oxoadipate] was run?
A: 0

Q: `CCCCCC/C=C\CCCCCCCC(=O)O[C@H](CO)COP(=O)([O-])OCC[N+](C)(C)C` [2-palmitoleoyl-GPC (16:1)*] was tested. Which Log2FoldChange [1] did it give?
A: 0.9635

Q: And the Log2FoldChange (sheet "Figure 5C")?
A: 0.1375

Q: Which Log2FoldChange (supplement sheet "Figure 5B") does the source give for `CCCCCCCCCCCCCCCC(=O)O[C@H](CO)COP(=O)([O-])OCC[N+](C)(C)C` [2-palmitoyl-GPC (16:0)*] here?
A: 0.2016

Q: And the Log2FoldChange (sheet "Figure 5C")?
A: 0.4005

Q: Which Log2FoldChange (supplement sheet "Figure 5B") does the source give for `CCCCCCCCCCCCCCCC(=O)OC(CO)CO` [2-palmitoylglycerol (16:0)] here?
A: -0.1361

Q: And the Log2FoldChange (sheet "Figure 5C")?
A: 0.433

Q: With `CCCCCCCCCCCCCCCCCC(=O)O[C@H](CO)COP(=O)(O)OCCN` [2-stearoyl-GPE (18:0)*] as the compound, how does the Log2FoldChange [1] read?
A: 0.3103

Q: And the Log2FoldChange (sheet "Figure 5C")?
A: 0.1763

Q: How did the Log2FoldChange (supplement sheet "Figure 5B") turn out when `C[C@@H](O)[C@@H](O)C(=O)O` [2R,3R-dihydroxybutyrate] was run?
A: -0.08927

Q: And the Log2FoldChange (sheet "Figure 5C")?
A: -0.4344

Q: `C[C@@H](O)[C@H](O)C(=O)O` [2S,3R-dihydroxybutyrate] was tested. Which Log2FoldChange (supplement sheet "Figure 5B") did it give?
A: -0.1203

Q: With `O=C(O)c1c(O)c(Cl)cc(Cl)c1O` [3,5-dichloro-2,6-dihydroxybenzoic acid] as the compound, how does the Log2FoldChange [2] read?
A: -0.2009

Q: With `NC(CCn1c(=O)ccn([C@@H]2O[C@H](CO)[C@@H](O)[C@H]2O)c1=O)C(=O)O` (stereo partly shown) [3-(3-amino-3-carboxypropyl)uridine*] as the compound, how does the Log2FoldChange (supplement sheet "Figure 5B") read?
A: -0.074

Q: How did the Log2FoldChange [2] turn out when `O=C(O)CCc1cccc(OS(=O)(=O)O)c1` [3-(3-hydroxyphenyl)propionate sulfate] was run?
A: -1.474

Q: With `O=C(O)CCc1cccc(O)c1` [3-(3-hydroxyphenyl)propionate] as the compound, how does the Log2FoldChange [2] read?
A: -1.4344

Q: Which Log2FoldChange (sheet "Figure 5C") does the source give for `O=C(O)C(O)Cc1ccc(O)cc1` (stereo not shown) [3-(4-hydroxyphenyl)lactate] here?
A: 0.3334

Q: Which Log2FoldChange [2] does the source give for `O=C(O)CCc1ccc(O)cc1` [3-(4-hydroxyphenyl)propionate] here?
A: -1.69

Q: For `CC(=O)c1cccc(OS(=O)(=O)O)c1` [3-acetylphenol sulfate], which Log2FoldChange [2] is on record?
A: -1.089

Q: `NC1CCCNC1=O` (stereo not shown) [3-amino-2-piperidone] was tested. Which Log2FoldChange (supplement sheet "Figure 5B") did it give?
A: 0

Q: Which Log2FoldChange (supplement sheet "Figure 5B") does the source give for `CC(CN)C(=O)O` (stereo not shown) [3-aminoisobutyrate] here?
A: 0.1763

Q: What about the Log2FoldChange (sheet "Figure 5C") of the same compound?
A: 0.3219

Q: How did the Log2FoldChange [1] turn out when `C[C@H](CCC(=O)O)[C@H]1CC[C@H]2[C@@H]3[C@H](O)C[C@@H]4CC(=O)CC[C@]4(C)[C@H]3C[C@H](O)[C@]12C` [3-dehydrocholate] was run?
A: 0.8319

Q: `O=Cc1c[nH]c2ccccc12` [3-formylindole] was tested. Which Log2FoldChange (supplement sheet "Figure 5B") did it give?
A: 0.02857

Q: `CCC(CO)C(=O)O` (stereo not shown) [3-hydroxy-2-ethylpropionate] was tested. Which Log2FoldChange [1] did it give?
A: 0.3219

Q: For `CC(O)(CC(=O)O)CC(=O)O` [3-hydroxy-3-methylglutarate], which Log2FoldChange (supplement sheet "Figure 5B") is on record?
A: 0.09761

Q: With `O=C(O)CCC(O)CC(=O)O` (stereo not shown) [3-hydroxyadipate] as the compound, how does the Log2FoldChange (supplement sheet "Figure 5B") read?
A: -0.1361

Q: Which Log2FoldChange (sheet "Figure 5C") does the source give for `CCCCCCCCCCCCCCCCCC(O)CC(=O)O` (stereo not shown) [3-hydroxyarachidate*] here?
A: 0.2016

Q: For `CC(O)CC(=O)O` (stereo not shown) [3-hydroxybutyrate (BHBA)], which Log2FoldChange [2] is on record?
A: -0.2515

Q: `CCCCCCCC(O)CC(=O)O` (stereo not shown) [3-hydroxydecanoate] was tested. Which Log2FoldChange (supplement sheet "Figure 5B") did it give?
A: -0.1203

Q: What about the Log2FoldChange (sheet "Figure 5C") of the same compound?
A: -0.2345

Q: `CCCCCCCC(O)CC(=O)OC(CC(=O)[O-])C[N+](C)(C)C` (stereo not shown) [3-hydroxydecanoylcarnitine] was tested. Which Log2FoldChange (sheet "Figure 5C") did it give?
A: 0.263

Q: With `O=C(O)CCCCCCCCC(O)CC(=O)O` (stereo not shown) [3-hydroxydodecanedioate*] as the compound, how does the Log2FoldChange [1] read?
A: 2.111

Q: `CCCC(O)CC(=O)O` (stereo not shown) [3-hydroxyhexanoate] was tested. Which Log2FoldChange (supplement sheet "Figure 5B") did it give?
A: -0.1203

Q: What about the Log2FoldChange (sheet "Figure 5C") of the same compound?
A: 0.05658

Q: Which Log2FoldChange (sheet "Figure 5C") does the source give for `CCCC(O)CC(=O)OC(CC(=O)[O-])C[N+](C)(C)C` (stereo not shown) [3-hydroxyhexanoylcarnitine (1)] here?
A: 0.05658

Q: Which results are given for `C[C@@H](CO)C(=O)O` [3-hydroxyisobutyrate]?
A: Log2FoldChange (supplement sheet "Figure 5B"): -0.074; Log2FoldChange (sheet "Figure 5C"): 0.3785

Q: Which Log2FoldChange (supplement sheet "Figure 5B") does the source give for `CCCCCCCCCC(O)CC(=O)O` (stereo not shown) [3-hydroxylaurate] here?
A: -0.1203

Q: Which Log2FoldChange [2] does the source give for `CCCCCCCCCCCC(O)CC(=O)O` (stereo not shown) [3-hydroxymyristate] here?
A: -0.1844

Q: What about the Log2FoldChange (sheet "Figure 5C") of the same compound?
A: 0.08406

Q: Which results are given for `CCCCCC(O)CC(=O)O` (stereo not shown) [3-hydroxyoctanoate]?
A: Log2FoldChange (supplement sheet "Figure 5B"): -0.152; Log2FoldChange (sheet "Figure 5C"): 0.08406

Q: With `CCCCCC(O)CC(=O)OC(CC(=O)[O-])C[N+](C)(C)C` (stereo not shown) [3-hydroxyoctanoylcarnitine (1)] as the compound, how does the Log2FoldChange (sheet "Figure 5C") read?
A: -0.0145

Q: For `CCCCCC(O)CC(=O)NCC(=O)O` (stereo not shown) [3-hydroxyoctanoylglycine], which Log2FoldChange [1] is on record?
A: 0.5059

Where a name gives a salt, the structure may show the parent alone.
